{"sequences": {"note": "Chains of the proteins cited; added tags and fusions are not shown. Lines headed by an entry give the natural chain unless they say otherwise; changes in a name come on top.", "UniProt P15090": "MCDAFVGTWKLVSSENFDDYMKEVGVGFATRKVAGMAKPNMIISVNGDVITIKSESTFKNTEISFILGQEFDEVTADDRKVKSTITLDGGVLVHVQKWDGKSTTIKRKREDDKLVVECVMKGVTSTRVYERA"}, "source": "patent US9968616B2", "about": "“Discovery of FDA-approved drugs as inhibitors of fatty acid binding protein 4 using molecular docking screening” (The Chinese University of Hong Kong, priority 2014, dated 2018)", "target": "human FABP4 (Homo sapiens, UniProt P15090)", "assay": "FABP4 Inhibitor/Ligand Screening Assay Kit, cell-free ligand displacement fluorescence-labeled probe assay", "type": "binding", "details": "10 μM", "note": "At least one structure is not confirmed: it was looked up by name or label, or the drawing left a doubt."}
{"smiles": "O=c1[nH]c2ccccc2n1C1CCN(CCCC(c2ccc(F)cc2)c2ccc(F)cc2)CC1", "note": "[Pimozide]", "values": [{"measurement": "FABP4 activity by in vitro validations (in words)", "result": "directly inhibits FABP4 activity"}]}
